From ChEMBL document CHEMBL5244215, “Recent advancement of piperidine moiety in treatment of cancer- A review” (Eur J Med Chem, 2018) come the findings set out here.

Protein sequences, listed by entry. Tags and fused reporters are not part of them. Residues count along the entry.
UniProt Q9UM73, 19-1620 L1196M limits assumed: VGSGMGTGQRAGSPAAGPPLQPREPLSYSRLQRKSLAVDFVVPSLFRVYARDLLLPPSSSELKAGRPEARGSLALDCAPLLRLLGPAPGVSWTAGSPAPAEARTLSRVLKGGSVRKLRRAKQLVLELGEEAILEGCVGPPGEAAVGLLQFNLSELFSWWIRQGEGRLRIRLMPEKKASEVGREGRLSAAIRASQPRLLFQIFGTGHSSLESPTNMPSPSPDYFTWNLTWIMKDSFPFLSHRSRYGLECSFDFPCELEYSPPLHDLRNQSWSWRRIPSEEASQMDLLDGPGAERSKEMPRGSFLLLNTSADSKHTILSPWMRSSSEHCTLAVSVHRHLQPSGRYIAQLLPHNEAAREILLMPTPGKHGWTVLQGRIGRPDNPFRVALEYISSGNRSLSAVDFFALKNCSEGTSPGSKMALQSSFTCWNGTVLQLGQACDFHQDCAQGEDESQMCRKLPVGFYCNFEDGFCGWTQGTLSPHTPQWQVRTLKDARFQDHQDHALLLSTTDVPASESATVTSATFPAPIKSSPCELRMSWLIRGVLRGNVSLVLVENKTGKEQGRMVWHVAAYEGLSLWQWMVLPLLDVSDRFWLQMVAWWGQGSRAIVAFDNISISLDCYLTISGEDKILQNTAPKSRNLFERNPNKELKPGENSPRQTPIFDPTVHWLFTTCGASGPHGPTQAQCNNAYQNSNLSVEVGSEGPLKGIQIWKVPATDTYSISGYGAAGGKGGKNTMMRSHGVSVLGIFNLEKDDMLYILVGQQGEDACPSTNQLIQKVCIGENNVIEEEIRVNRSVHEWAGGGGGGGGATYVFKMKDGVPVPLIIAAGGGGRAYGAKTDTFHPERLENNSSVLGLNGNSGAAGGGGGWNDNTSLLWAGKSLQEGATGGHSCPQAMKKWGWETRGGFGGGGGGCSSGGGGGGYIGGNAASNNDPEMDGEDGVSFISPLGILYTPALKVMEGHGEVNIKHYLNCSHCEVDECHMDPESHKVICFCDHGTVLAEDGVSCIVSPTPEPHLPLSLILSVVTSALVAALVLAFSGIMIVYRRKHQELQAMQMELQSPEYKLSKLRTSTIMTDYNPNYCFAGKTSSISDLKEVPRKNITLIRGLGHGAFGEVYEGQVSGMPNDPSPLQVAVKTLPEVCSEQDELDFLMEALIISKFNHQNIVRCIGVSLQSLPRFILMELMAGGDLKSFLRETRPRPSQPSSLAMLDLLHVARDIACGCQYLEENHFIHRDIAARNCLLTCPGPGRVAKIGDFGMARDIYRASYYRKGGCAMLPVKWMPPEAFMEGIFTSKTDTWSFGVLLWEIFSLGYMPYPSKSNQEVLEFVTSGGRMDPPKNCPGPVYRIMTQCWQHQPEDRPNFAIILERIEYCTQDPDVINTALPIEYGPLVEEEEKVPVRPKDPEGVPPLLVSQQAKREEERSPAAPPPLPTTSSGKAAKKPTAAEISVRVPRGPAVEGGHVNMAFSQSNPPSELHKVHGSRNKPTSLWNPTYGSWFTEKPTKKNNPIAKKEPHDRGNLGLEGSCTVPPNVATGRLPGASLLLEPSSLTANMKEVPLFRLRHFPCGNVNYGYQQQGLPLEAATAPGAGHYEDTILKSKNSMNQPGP

The IC50 is the concentration needed to halve the response being measured. A high value points to weaker potency.

In assay [1] the target is ALK tyrosine kinase receptor (Homo sapiens, UniProt Q9UM73, L1196M).
Assay [2] addresses ALK tyrosine kinase receptor (Homo sapiens, UniProt Q9UM73).

As to `COc1cc(C2CCN(C(=O)CO)CC2)ccc1Nc1ncc(C(F)(F)F)c(Nc2ccc(C3CCN(C(=O)CO)CC3)cc2OC)n1`, the IC50 in assay [1] was found to be 3 nM; in assay [2] it was 2 nM.
